Source: patent US20140255341A1, “Tumor Selective Chemokine Modulation” (priority 2011, published 2014)
For at least one compound, name, drawing or mass did not settle the structure.

Tested on: colorectal cancer tumor tissues
Assay: Ex vivo tumor/tissue explant culture, chemokine ELISA
Type: cell-based, human
Conditions: colorectal cancer lesions, 48 hr, tumors of 3 patients
Procedure: FIG. 6. […] (A) Fresh tumor samples from 11 patients with metastatic colorectal cancer were untreated or treated with IFNα and poly-I:C either individually or in combination for 48 hours. The release of CCL5 and CXCL10 into culture media was analyzed by ELISA. Numbers indicate the prevalence of tumors with each chemokine pattern (respective patterns A, B or C). (B) ELISA analysis of CCL5, CCL22 and CXCL10 in tumors untreated or treated with IFNα+pI:C, with or without indomethacin. (C) Heterogeneous response of different tumor lesions from the same patient (CCL5 and CXCL10 production) to the individual components of the chemokine-modulating cocktail. (D) Indomethacin and celecoxib enhance the IFNα/poly-I:C-induced Teff-attracting chemokine expression, but suppress Treg-attracting chemokine expression in colorectal cancer lesions. All cultures were for 48 hr. Combined data from the tumors of 3 different patients (n=3).
FIG. 7. […] (A) In-situ hybridization for respective chemokine mRNA (black grains) in tumor biopsies which were either left untreated or treated with the combination of indomethacin, IFNa and poly-I:C (IAP). (B) ELISA analysis of the chemokine contents in the supernatants of 48 hour-cultured tumor tissues (untreated or treated) from 10 different patients. […]

How did the “IFNα/poly-I:C-induced Teff-attracting chemokine expression” value turn out when `Cc1ccc(-c2cc(C(F)(F)F)nn2-c2ccc(S(N)(=O)=O)cc2)cc1` [celecoxib] was run?
The value was “enhance”.

What about the Treg-attracting chemokine expression (with IFNα/poly-I:C) of the same compound?
Its Treg-attracting chemokine expression is “suppress”.
